Test results from patent US12075697B2, “Inert solution-processable molecular chromophores for organic electronic devices” (The Regents of the University of California, priority 2012, dated 2024).

Test: Solar cell device ITO/PEDOT:PSS/DTS(FBTTh2)2:PC71BM/Ca/Al, current-voltage characteristics
Settings: blend with PC71BM
[1] = 0.4% v/v diiodooctane (DIO), low temperature anneal (70° C.)

CCCCCCc1ccc(-c2ccc(-c3cc(F)c(-c4cc5c(s4)-c4sc(-c6c(F)cc(-c7ccc(-c8ccc(CCCCCC)s8)s7)c7nsnc67)cc4[Si]5(CC(CC)CCCC)CC(CC)CCCC)c4nsnc34)s2)s1 (stereo not drawn) [p-DTS(FBTTh2)2, 7,7′-(4,4-bis(2-ethylhexyl)-4H-silolo[3,2-b:4,5-b′]dithiophene-2,6-diyl)bis(6-fluoro-4-(5′-hexyl-[2,2′-bithiophen]-5-yl)benzo[c][1,2,5]thiadiazole)]
fill factor (FF) [1]: 0.68 | open circuit voltage (VOC) [1]: 809 mV | power conversion efficiency (PCE) [1]: 7.0% | short circuit current (JSC) [1]: 12.8 mA cm^−2 | fill factor (FF) (as cast): 0.30 | open circuit voltage (VOC) (as cast): 680 mV | power conversion efficiency (PCE) (as cast): 1.6% | short circuit current (JSC) (as cast): 7.0 mA cm^−2 | fill factor (FF) (thermal annealing at 130° C.): 0.62 | open circuit voltage (VOC) (thermal annealing at 130° C.): 820 mV | power conversion efficiency (PCE) (thermal annealing at 130° C.): 5.6% | short circuit current (JSC) (thermal annealing at 130° C.): 11.0 mA cm^−2
